The values that follow come from paper PMC12431657, “Discovery and mechanistic insights of dibenzoylmethane as a broad spectrum inhibitor of coronavirus” (PLOS Pathogens, 2025).

Where two headings read alike, the source gives them in different places. Screen size: about 3,300 compounds; about 60 (2%) showed an effect of 50% or more. The list shows a part of the results. Square brackets hold non-standard residues; d marks the D form. Peptide text beside a SMILES is read from it. * marks the point of attachment. Sta = CC(C)C[C@H](N)[C@@H](O)CC(=O)O; Isovaleryl = CC(C)CC(=O)*

The test system of this assay is HCoV-OC43. The arrangement: species or system RD; HTS, protection from HCoV-OC43 induced cell death, luminescent cell viability (CellCounting-Lite 2.0), inhibition rate. The following applies: 24 h post infection, 1 h compound pre-incubation, 10 µM, inhibitor.

Turning to `O=C(/C=C/c1ccc(O)c(O)c1)O[C@@H]1C[C@](O)(C(=O)O)C[C@@H](O)[C@H]1O` [Chlorogenic acid], the “OC43 Inhibition rate” value was -0.2%.

In the case of `C[C@@H]1O[C@@H](OC[C@H]2O[C@@H](Oc3cc(O)c4c(=O)cc(-c5ccc(O)cc5)oc4c3)[C@H](O)[C@@H](O)[C@@H]2O)[C@H](O)[C@H](O)[C@H]1O` [Isorhoifolin], the “OC43 Inhibition rate” value stood at 0%.

With `C=CCOC(Cn1ccnc1)c1ccc(Cl)cc1Cl` (stereo not drawn) [Imazalil], the “OC43 Inhibition rate” value was 23.5%.

On to `Cc1cc2c(C(C)C)c(O)c(O)c(C=O)c2c(O)c1-c1c(C)cc2c(C(C)C)c(O)c(O)c(C=O)c2c1O` [Gossypol], for which the “OC43 Inhibition rate” value is given as -0.1%.

In the case of `C/C=C(\C)C(=O)O[C@H]1C[C@@H](OC(C)=O)[C@@]2(C(=O)OC)CO[C@H]3[C@@H](O)[C@@](C)([C@]45O[C@@]4(C)[C@H]4C[C@@H]5O[C@@H]5OC=C[C@@]54O)[C@H]4[C@]1(CO[C@]4(O)C(=O)OC)[C@@H]32` [Azadirachtin], the “OC43 Inhibition rate” value was found to be 0.1%.

Turning to `C[C@@H]1CCCCCCCCCCCCC(=O)C1` [Muscone], the “OC43 Inhibition rate” value is reported as 2.5%.

In the case of `CC(C)=CCC[C@](C)(O[C@@H]1O[C@H](CO[C@@H]2O[C@H](CO)[C@@H](O)[C@H](O)[C@H]2O)[C@@H](O)[C@H](O)[C@H]1O)[C@H]1CC[C@]2(C)[C@@H]1[C@H](O)C[C@@H]1[C@@]3(C)CC[C@H](O[C@@H]4O[C@H](CO)[C@@H](O)[C@H](O)[C@H]4O[C@@H]4O[C@H](CO)[C@@H](O)[C@H](O)[C@H]4O[C@@H]4OC[C@@H](O)[C@H](O)[C@H]4O)C(C)(C)[C@@H]3CC[C@]12C` [Notoginsenoside Fa], the “OC43 Inhibition rate” value was found to be 0.1%.

`CC(C)CC(=O)N[C@H](C(=O)N[C@H](C(=O)N[C@@H](CC(C)C)[C@@H](O)CC(=O)N[C@@H](C)C(=O)N[C@@H](CC(C)C)[C@@H](O)CC(=O)O)C(C)C)C(C)C` [Pepstatin (Trifluoroacetate)] (Isovaleryl-VV[Sta]A[Sta]-OH): for the setting “OC43 Inhibition rate, 24 h”, the “OC43 Inhibition rate” value is -3.4%.

On to `CC(=O)OCC(=O)[C@H]1CC[C@H]2[C@@H]3CCC4=CC(=O)CC[C@]4(C)[C@H]3CC[C@]12C` [Deoxycorticosterone acetate], for which the “OC43 Inhibition rate” value is listed as -0.1%.

As for `COc1ccc(-c2cc(=O)c3ccccc3o2)cc1OC` [3',4'-Dimethoxyflavone], the “OC43 Inhibition rate” value was 6.6%.

Turning to `O=C(O)c1ccc(C(=O)O)cc1` [Terephthalic acid], the “OC43 Inhibition rate” value is given as 0.5%.

Regarding `COc1ccc(O)c(C(=O)O)c1` [5-Methoxysalicylic acid], the “OC43 Inhibition rate” value was -0.5%.

Take `Cc1c(O)c(C)c2c(c1O)C(=O)[C@H](Cc1ccc3c(c1)OCO3)CO2` [Methylophiopogonanone A]: the “OC43 Inhibition rate” value is on record as -1%.

For the molecule `COC(=O)/C=C/c1ccccc1` [Methyl cinnamate], the “OC43 Inhibition rate” value is reported as -0.6%.

Regarding `C[C@H]1[C@H](OC(=O)CCC(=O)O)O[C@@H]2O[C@@]3(C)CC[C@H]4[C@H](C)CC[C@@H]1[C@@]24OO3` [Artesunate], the “OC43 Inhibition rate” value is reported as -0.8%.

Regarding `CCCCCCCCCCCCOC(=O)CS(=O)(=O)O` [Sodium lauryl sulfoacetate], the “OC43 Inhibition rate” value stood at 18%.

With `COc1ccc(C(=O)O)cc1OC` [Veratric acid], the “OC43 Inhibition rate” value worked out at 5.5%.

For `OC[C@H]1O[C@@H](Oc2ccc3c(c2)OC[C@H]2c4cc5c(cc4O[C@@H]32)OCO5)[C@H](O)[C@@H](O)[C@@H]1O` [Trifolirhizin], the “OC43 Inhibition rate” value was found to be 0.2%.

In the case of `C=C(CO)C(=O)O[C@H]1CC(=C)[C@@H]2C[C@H](O)C(=C)[C@@H]2[C@H]2OC(=O)C(=C)[C@@H]21` [Cynaropicrin], the “OC43 Inhibition rate” value is -2.3%.

On to `O=C(O[C@@H]1Cc2c(O)cc(O)cc2O[C@H]1c1cc(O)c(O)c(O)c1)c1cc(O)c(O)c(O)c1` [(-)-Gallocatechin gallate], for which the “OC43 Inhibition rate” value came to 1.5%.

In the case of `CC1=CCC(C(C)C)=CC1` [γ-Terpinene], the “OC43 Inhibition rate” value was 0.9%.

`Oc1cc2cc[nH]c2cc1O` [5,6-Dihydroxyindole]: the “OC43 Inhibition rate” value is recorded as -0.2%.

Take `O=C1c2c(O)cc(O)cc2O[C@H](c2cc(O)c(O)c(O)c2)[C@H]1O` [Dihydromyricetin]: the “OC43 Inhibition rate” value is recorded as -0.8%.

Regarding `CCOc1ccc2ccc(=O)oc2c1` [7-Ethoxycoumarin], the “OC43 Inhibition rate” value stood at 0%.

As for `COc1ccc([C@@H]2CC(=O)c3c(O)cc(O[C@@H]4O[C@H](CO[C@@H]5O[C@@H](C)[C@H](O)[C@@H](O)[C@H]5O)[C@@H](O)[C@H](O)[C@H]4O)cc3O2)cc1OC` [Methyl-Hesperidin], the “OC43 Inhibition rate” value was 0.1%.

As to `C[C@H](CCC(=O)NCCS(=O)(=O)O)[C@H]1CC[C@H]2[C@@H]3[C@@H](O)C[C@@H]4C[C@H](O)CC[C@]4(C)[C@H]3CC[C@]12C` [Tauroursodeoxycholate], the “OC43 Inhibition rate” value came to 2%.

Take `Cc1cccc(CC(=O)O)c1` [m-Tolylacetic acid]: the “OC43 Inhibition rate” value is reported as -0.7%.

As for `COc1c(O)cc2oc3cc(O)c(CC=C(C)C)c(O)c3c(=O)c2c1CC=C(C)C` [alpha-Mangostin], the “OC43 Inhibition rate” value is reported as 16.6%.

`C=C1C(=O)[C@@]23[C@H](O)C[C@@H]4C(C)(C)CC[C@H](O)[C@@]4(CO)[C@@H]2CC[C@@H]1[C@H]3O` [Kamebakaurin]: the “OC43 Inhibition rate” value was -2.9%.

As to `COc1ccc(CC(=O)O)cc1` [2-(4-Methoxyphenyl)acetic acid], the “OC43 Inhibition rate” value stood at 0%.

As to `C=CCCCCCCCCC(=O)O` [10-Undecenoic acid], the “OC43 Inhibition rate” value was 2.6%.

For `CCCCC/C=C\C/C=C\CCCCCCCC(=O)O[C@H]1CC[C@@]2(C)C(=CC[C@H]3[C@@H]4CC[C@H]([C@H](C)CCCC(C)C)[C@@]4(C)CC[C@@H]32)C1` [Cholesteryl linoleate], the “OC43 Inhibition rate” value was found to be 0.3%.

Turning to `NCC(=O)N[C@@H](Cc1ccc(O)cc1)C(=O)O` [Glycyl-L-tyrosine] (H-Gly-Tyr-OH), the “OC43 Inhibition rate” value is -0.2%.

Consider `Cc1nc2n(c(=O)c1CCN1CCC(c3noc4cc(F)ccc34)CC1)CCCC2O` (stereo not drawn) [Paliperidone], for which the “OC43 Inhibition rate” value is listed as 0%.

In the case of `C/C(=C\CC[C@@H](C)[C@H]1CC[C@@]2(C)C3=CC[C@H]4C(C)(C)[C@@H](O)CC[C@]4(C)C3=CC[C@]12C)CO` [Ganoderol B], the “OC43 Inhibition rate” value is -0.3%.

With `COc1c(O)c2c(=O)cc(OC)c3c4c(OC)cc(=O)c5c(O)c(OC)c6c(c(c1CC(C)=C6C(C)=O)c23)c54` [Hypocrellin B], the “OC43 Inhibition rate” value is listed as -0.3%.
